Among the data in publication PMC6416337 are binding values, retold here.

No constants are given. Whether binding was seen depends on the method and setting. In cells and extracts the contact can be indirect. A yes stands for co-enrichment or nearness to the bait. Other partners may have been found. Sequences can lack the tags named with a protein.

In this test the target is T1, Flag-HA-SOS2 (Pro35S:Flag-HA-SOS2 in sos2-2) (Arabidopsis) (UniProt Q9LDI3).
T1 sequence: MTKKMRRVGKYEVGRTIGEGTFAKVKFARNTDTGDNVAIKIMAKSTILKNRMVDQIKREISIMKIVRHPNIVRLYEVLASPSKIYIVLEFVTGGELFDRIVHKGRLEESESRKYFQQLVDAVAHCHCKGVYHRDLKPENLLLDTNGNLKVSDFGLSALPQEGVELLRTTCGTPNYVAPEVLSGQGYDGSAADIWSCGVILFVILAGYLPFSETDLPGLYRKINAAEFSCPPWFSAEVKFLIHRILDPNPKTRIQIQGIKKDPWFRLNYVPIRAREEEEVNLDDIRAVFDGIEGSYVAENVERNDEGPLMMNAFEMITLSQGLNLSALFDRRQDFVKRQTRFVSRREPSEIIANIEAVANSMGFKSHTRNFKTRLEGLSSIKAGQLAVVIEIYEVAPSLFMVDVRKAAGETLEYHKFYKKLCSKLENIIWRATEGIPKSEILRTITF
The test is described as follows: affinity purification with mass spectrometry; tagged SOS2 immunoprecipitated with anti-HA-conjugated agarose from 10-day-old transgenic seedlings (sos2-2 background); IP buffer 10 mM Tris pH 7.5, 0.5% Nonidet P-40, 2 mM EDTA, 150 mM NaCl; LTQ Orbitrap Velos.

B1: SOS2-LIKE PROTEIN KINASE5 (PKS5), endogenous (protein, UniProt O22932 1-435)
chain: MPEIEIAAGSGDNNDALFGKYELGKLLGCGAFAKVFHARDRRTGQSVAVKILNKKKLLTNPALANNIKREISIMRRLSHPNIVKLHEVMATKSKIFFAMEFVKGGELFNKISKHGRLSEDLSRRYFQQLISAVGYCHARGVYHRDLKPENLLIDENGNLKVSDFGLSALTDQIRPDGLLHTLCGTPAYVAPEILSKKGYEGAKVDVWSCGIVLFVLVAGYLPFNDPNVMNMYKKIYKGEYRFPRWMSPDLKRFVSRLLDINPETRITIDEILKDPWFVRGGFKQIKFHDDEIEDQKVESSLEAVKSLNAFDLISYSSGLDLSGLFAGCSNSSGESERFLSEKSPEMLAEEVEGFAREENLRMKKKKEEEYGFEMEGQNGKFGIGICISRLNDLLVVVEARRRGGDGDCYKEMWNGKLRVQLIRVCDQTSSTNAAI
Turning to B1, the binding entry is “binds”.
